No constants are given. Whether binding was seen depends on the method and setting. In cells and extracts the contact can be indirect. Some binding calls cover weakened binding; strength is not graded here.
Assays:
[1] = target: recombinant 'free' CUB domain of human PDGF-C (amino-acid residues 23-163, C-terminal His6 tag) (human) (UniProt Q9NRA1); experiment: Ni-NTA pull-down, elution with 400 mM imidazole, immunoblot (FIG. 5B)
[2] = target: recombinant His6-tagged latent (full-length) human PDGF-CC (human) (UniProt Q9NRA1); experiment: as above
[3] = target: recombinant His6-tagged core domain of PDGF-CC (human) (UniProt Q9NRA1); experiment: as above
[4] = target: recombinant 'free' CUB domain of human PDGF-C (amino-acid residues 23-163, C-terminal His6 tag) (human) (UniProt Q9NRA1); experiment: Ni-NTA pull-down with His6-tagged protein on beads, imidazole elution, immunoblot
[5] = target: recombinant His6-tagged latent (full-length) human PDGF-CC (human) (UniProt Q9NRA1); experiment: as above
[6] = target: recombinant His6-tagged core domain of PDGF-CC (human) (UniProt Q9NRA1); experiment: as above

Chains of the proteins cited; added tags and fusions are not shown. Lines headed by an entry give the natural chain unless they say otherwise; changes in a name come on top. A line that says so, or that is headed by a name, gives the form on record, which may keep a tag or linker. Residues count along the entry.
recombinant 'free' CUB domain of human PDGF-C (amino-acid residues 23-163, C-terminal His6 tag) (Q9NRA1, form named): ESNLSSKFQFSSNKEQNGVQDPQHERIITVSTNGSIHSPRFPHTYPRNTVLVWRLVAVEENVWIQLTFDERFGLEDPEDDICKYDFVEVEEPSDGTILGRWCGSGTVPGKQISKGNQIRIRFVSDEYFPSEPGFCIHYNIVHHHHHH
recombinant His6-tagged latent (full-length) human PDGF-CC (Q9NRA1, form named): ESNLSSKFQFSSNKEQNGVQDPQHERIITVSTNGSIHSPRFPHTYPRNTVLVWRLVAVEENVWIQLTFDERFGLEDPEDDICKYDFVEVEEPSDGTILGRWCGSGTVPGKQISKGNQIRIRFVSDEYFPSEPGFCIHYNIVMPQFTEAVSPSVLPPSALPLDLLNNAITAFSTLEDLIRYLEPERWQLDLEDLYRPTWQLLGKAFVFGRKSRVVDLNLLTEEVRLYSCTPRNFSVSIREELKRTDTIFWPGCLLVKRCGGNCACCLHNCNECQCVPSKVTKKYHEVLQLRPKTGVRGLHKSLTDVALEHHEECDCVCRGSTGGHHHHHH
recombinant His6-tagged core domain of PDGF-CC (Q9NRA1, form named): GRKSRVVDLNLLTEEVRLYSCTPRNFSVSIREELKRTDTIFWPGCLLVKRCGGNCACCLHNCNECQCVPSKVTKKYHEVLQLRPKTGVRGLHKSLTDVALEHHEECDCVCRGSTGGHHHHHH
UniProt P00750, residues 36-562: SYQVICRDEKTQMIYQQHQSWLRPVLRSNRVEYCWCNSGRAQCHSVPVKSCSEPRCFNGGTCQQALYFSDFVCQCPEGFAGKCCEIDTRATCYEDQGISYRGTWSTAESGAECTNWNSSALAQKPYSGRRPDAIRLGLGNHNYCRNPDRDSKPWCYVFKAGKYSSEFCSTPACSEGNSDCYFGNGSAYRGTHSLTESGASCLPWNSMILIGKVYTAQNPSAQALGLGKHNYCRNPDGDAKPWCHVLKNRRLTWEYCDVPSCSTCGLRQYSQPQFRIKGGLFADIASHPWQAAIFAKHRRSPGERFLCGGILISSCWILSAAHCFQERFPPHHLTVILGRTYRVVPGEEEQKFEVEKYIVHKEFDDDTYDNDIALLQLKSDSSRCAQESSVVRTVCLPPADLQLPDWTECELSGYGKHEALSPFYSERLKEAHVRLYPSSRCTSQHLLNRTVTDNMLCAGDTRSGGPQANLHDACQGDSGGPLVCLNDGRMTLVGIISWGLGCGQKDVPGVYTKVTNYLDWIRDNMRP

binding [1]: binds | binding [2]: binds | binding [3]: binds | binding [4]: binds | binding [5]: binds | binding [6]: binds
Substance: tPA purified from human melanoma cells (T7776, Sigma) (from UniProt P00750 36-562) (enzyme)
